Results reported in the supplement of paper PMC6078165.

System: BT20
Assay: relative JC-1 red fluorescence (viability) vs pre-drug, coculture with fibroblast (fraction); higher = more viable cancer cells
Method: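 JC-1 labelled TNBC cells cocultured 1:1 (1,500 cells each) with CellTrace Violet stained primary or stromal fibroblasts in 384-well plates in FluoroBrite medium, treated with one of 42 anticancer drugs at 0.1, 1, 10 or 100 uM. JC-1 red fluorescence (mitochondrial integrity in cancer cells only) was read by plate reader every 8 h for 72 h. Values are normalised to each well's pre-drug value. The stock of one drug was tenfold lower, so its dose labels may be too high.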

CCC1=C[C@@H]2CN(C1)Cc1c([nH]c3ccccc13)[C@@](C(=O)OC)(c1cc3c(cc1OC)N(C)[C@H]1[C@@](O)(C(=O)OC)[C@H](OC(C)=O)[C@]4(CC)C=CCN5CC[C@]31[C@@H]54)C2 [Vinorelbine]
relative JC-1 red fluorescence
Settings	8 h	16 h	24 h	32 h	40 h	48 h	56 h	64 h	72 h
0.1 µM, coculture fibroblast: C12385	0.933 ± 0.013	0.799 ± 0.008	0.786 ± 0.037	0.724 ± 0.056	0.672 ± 0.072	0.639 ± 0.093	0.616 ± 0.085	0.602 ± 0.079	0.604 ± 0.071
0.1 µM, coculture fibroblast: H6013	0.966 ± 0.04	0.889 ± 0.047	0.872 ± 0.053	0.83 ± 0.083	0.801 ± 0.066	0.795 ± 0.08	0.793 ± 0.052	0.785 ± 0.056	0.773 ± 0.042
0.1 µM, coculture fibroblast: H6019	0.891 ± 0.033	0.82 ± 0.052	0.821 ± 0.07	0.777 ± 0.086	0.741 ± 0.079	0.732 ± 0.095	0.714 ± 0.12	0.712 ± 0.12	0.698 ± 0.12
0.1 µM, coculture fibroblast: H6076	0.9901 ± 0.0092	0.9226 ± 0.0048	0.846 ± 0.017	0.825 ± 0.019	0.7842 ± 0.0064	0.75 ± 0.016	0.749 ± 0.032	0.755 ± 0.042	0.748 ± 0.055
0.1 µM, coculture fibroblast: H6231	0.788 ± 0.09	0.9759 ± 0.0058	0.866 ± 0.056	0.786 ± 0.048	0.735 ± 0.064	0.667 ± 0.059	0.613 ± 0.08	0.563 ± 0.085	0.536 ± 0.1
0.1 µM, coculture fibroblast: HADF	0.854 ± 0.059	0.869 ± 0.026	0.8035 ± 0.0065	0.76254 ± 0.0006	0.708 ± 0.018	0.6764 ± 0.006	0.65 ± 0.018	0.6402 ± 0.0053	0.6188 ± 0.006
0.1 µM, coculture fibroblast: HCFa	0.939 ± 0.012	0.849 ± 0.0095	0.813 ± 0.027	0.745 ± 0.048	0.699 ± 0.048	0.664 ± 0.06	0.639 ± 0.052	0.609 ± 0.049	0.56 ± 0.028
0.1 µM, coculture fibroblast: HCPF	0.738 ± 0.054	0.927 ± 0.044	0.8392 ± 0.0066	0.779 ± 0.025	0.719 ± 0.011	0.68179 ± 0.00054	0.623 ± 0.013	0.614 ± 0.0082	0.586 ± 0.019
0.1 µM, coculture fibroblast: HHSteC	0.961 ± 0.044	0.906 ± 0.069	0.8843 ± 0.0024	0.861 ± 0.084	0.822 ± 0.087	0.801 ± 0.091	0.782 ± 0.082	0.754 ± 0.074	0.725 ± 0.056
0.1 µM, coculture fibroblast: HMF	0.964 ± 0.034	0.835 ± 0.042	0.752 ± 0.052	0.709 ± 0.057	0.648 ± 0.05	0.589 ± 0.035	0.552 ± 0.05	0.535 ± 0.06	0.522 ± 0.053
0.1 µM, coculture fibroblast: HPFa	0.955 ± 0.03	0.91 ± 0.06	0.898 ± 0.024	0.795 ± 0.016	0.7802 ± 0.0067	0.718 ± 0.021	0.699 ± 0.056	0.667 ± 0.067	0.637 ± 0.07
0.1 µM, coculture fibroblast: HUF	0.9434 ± 0.0021	0.827 ± 0.014	0.747 ± 0.017	0.653 ± 0.011	0.593 ± 0.02	0.526 ± 0.024	0.486 ± 0.025	0.459 ± 0.02	0.439 ± 0.013
0.1 µM, coculture fibroblast: Hs5	0.9779 ± 0.0093	0.883 ± 0.026	0.804 ± 0.011	0.742 ± 0.018	0.696 ± 0.021	0.662 ± 0.024	0.633 ± 0.01	0.6 ± 0.012	0.573 ± 0.024
0.1 µM, coculture fibroblast: Hs27A	0.718 ± 0.031	0.765 ± 0.077	0.981 ± 0.013	0.9483 ± 0.0068	0.922 ± 0.026	0.923 ± 0.055	0.921 ± 0.07	0.908 ± 0.083	0.88 ± 0.095
0.1 µM, coculture fibroblast: Hs343T	0.952 ± 0.036	0.887 ± 0.045	0.772 ± 0.031	0.701 ± 0.015	0.632 ± 0.018	0.574 ± 0.03	0.529 ± 0.039	0.511 ± 0.045	0.489 ± 0.043
0.1 µM, coculture fibroblast: WS1	0.902 ± 0.013	0.76555 ± 0.00056	0.723 ± 0.01	0.6533 ± 0.0027	0.5904 ± 0.0011	0.57 ± 0.0066	0.54 ± 0.0093	0.528 ± 0.011	0.524 ± 0.016
1 µM, coculture fibroblast: C12385	0.933 ± 0.048	0.865 ± 0.053	0.841 ± 0.075	0.784 ± 0.08	0.72 ± 0.079	0.675 ± 0.084	0.619 ± 0.073	0.582 ± 0.075	0.552 ± 0.075
1 µM, coculture fibroblast: H6013	0.942 ± 0.057	0.896 ± 0.029	0.92 ± 0.069	0.871 ± 0.077	0.839 ± 0.09	0.815 ± 0.09	0.822 ± 0.11	0.813 ± 0.098	0.794 ± 0.09
1 µM, coculture fibroblast: H6019	0.884 ± 0.019	0.859 ± 0.046	0.88 ± 0.087	0.832 ± 0.11	0.793 ± 0.12	0.777 ± 0.14	0.742 ± 0.13	0.736 ± 0.13	0.731 ± 0.12
1 µM, coculture fibroblast: H6076	0.982 ± 0.013	0.9069 ± 0.0048	0.8376 ± 0.004	0.807 ± 0.019	0.773 ± 0.042	0.734 ± 0.02	0.706 ± 0.033	0.687 ± 0.034	0.659 ± 0.035
1 µM, coculture fibroblast: H6231	0.8851 ± 0.0073	0.954 ± 0.032	0.823 ± 0.014	0.7429 ± 0.0048	0.66 ± 0.019	0.606 ± 0.015	0.533 ± 0.015	0.503 ± 0.0084	0.465 ± 0.027
1 µM, coculture fibroblast: HADF	0.873 ± 0.12	0.899 ± 0.026	0.853 ± 0.015	0.81 ± 0.035	0.769 ± 0.065	0.719 ± 0.073	0.669 ± 0.07	0.644 ± 0.06	0.601 ± 0.047
1 µM, coculture fibroblast: HCFa	0.922 ± 0.037	0.875 ± 0.011	0.843 ± 0.069	0.774 ± 0.069	0.726 ± 0.12	0.667 ± 0.12	0.623 ± 0.17	0.591 ± 0.18	0.541 ± 0.19
1 µM, coculture fibroblast: HCPF	0.809 ± 0.03	0.911 ± 0.017	0.845 ± 0.013	0.784 ± 0.0099	0.731 ± 0.015	0.6632 ± 0.0044	0.619 ± 0.006	0.599 ± 0.0088	0.544 ± 0.023
1 µM, coculture fibroblast: HHSteC	0.898 ± 0.016	0.8696 ± 0.0011	0.859 ± 0.012	0.7727 ± 0.003	0.7244 ± 0.003	0.6846 ± 0.0027	0.66069 ± 5.9e-05	0.639 ± 0.0071	0.613 ± 0.025
1 µM, coculture fibroblast: HMF	0.934 ± 0.087	0.884 ± 0.027	0.839 ± 0.012	0.781 ± 0.0022	0.72 ± 0.015	0.652 ± 0.011	0.616 ± 0.032	0.58 ± 0.042	0.552 ± 0.048
1 µM, coculture fibroblast: HPFa	0.926 ± 0.04	0.844 ± 0.011	0.848 ± 0.05	0.753 ± 0.071	0.711 ± 0.091	0.665 ± 0.11	0.648 ± 0.14	0.632 ± 0.14	0.594 ± 0.15
1 µM, coculture fibroblast: HUF	0.937 ± 0.033	0.8708 ± 0.0045	0.826 ± 0.039	0.747 ± 0.054	0.685 ± 0.084	0.634 ± 0.088	0.602 ± 0.11	0.573 ± 0.11	0.551 ± 0.12
1 µM, coculture fibroblast: Hs5	0.956 ± 0.013	0.902 ± 0.03	0.855 ± 0.023	0.791 ± 0.025	0.768 ± 0.023	0.712 ± 0.031	0.684 ± 0.035	0.663 ± 0.038	0.636 ± 0.033
1 µM, coculture fibroblast: Hs27A	0.849 ± 0.041	0.918 ± 0.11	0.922 ± 0.011	0.884 ± 0.026	0.853 ± 0.037	0.823 ± 0.023	0.802 ± 0.019	0.782 ± 0.015	0.748 ± 0.023
1 µM, coculture fibroblast: Hs343T	0.876 ± 0.11	0.886 ± 0.045	0.818 ± 0.021	0.7556 ± 0.0025	0.71 ± 0.038	0.649 ± 0.048	0.608 ± 0.069	0.584 ± 0.079	0.549 ± 0.11
1 µM, coculture fibroblast: WS1	0.852 ± 0.012	0.776 ± 0.012	0.746 ± 0.034	0.681 ± 0.038	0.62 ± 0.059	0.595 ± 0.077	0.575 ± 0.074	0.556 ± 0.075	0.552 ± 0.071

± gives the standard deviation of the averaged measurements. Values are relative to the signal before dosing, not to a vehicle control; the signal also falls without drug.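 Fibroblast labels name human fibroblasts: mostly primary ones from tissues such as uterus (C12385, HUF), lung (H6013), bone (Hs27A), adrenal (HADF) and skin (WS1), plus mammary HMF and breast cancer-associated Hs343T. The cancer cells are basal-like or mesenchymal-like triple-negative breast cancer lines. The paper calls a changed response a hit when it shifts by more than 3x the replicate standard deviation. The tissue of the other fibroblasts is not given here.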
